These are yes or no findings as the source states them, for the method shown. Binding seen in cells or lysates may run through a third protein. A result given as binding can be weak or reduced; the word gives no strength.
Target: Human Tspan15 tagged at the C-terminus with the N-terminal half of superfolder GFP (human) (UniProt O95858)
Test: split reporter

Protein sequences, listed by entry. Tags and fused reporters are not part of them. Lines headed by an entry give the natural chain unless they say otherwise; changes in a name come on top.
UniProt O95858: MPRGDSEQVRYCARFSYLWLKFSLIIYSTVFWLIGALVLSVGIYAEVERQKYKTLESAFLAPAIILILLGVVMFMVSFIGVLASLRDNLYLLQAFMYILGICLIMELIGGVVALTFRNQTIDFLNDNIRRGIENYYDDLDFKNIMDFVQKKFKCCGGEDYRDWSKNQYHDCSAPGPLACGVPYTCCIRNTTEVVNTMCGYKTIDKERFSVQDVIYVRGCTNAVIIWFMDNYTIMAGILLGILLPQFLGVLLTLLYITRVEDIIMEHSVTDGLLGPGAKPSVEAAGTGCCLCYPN
UniProt O35598: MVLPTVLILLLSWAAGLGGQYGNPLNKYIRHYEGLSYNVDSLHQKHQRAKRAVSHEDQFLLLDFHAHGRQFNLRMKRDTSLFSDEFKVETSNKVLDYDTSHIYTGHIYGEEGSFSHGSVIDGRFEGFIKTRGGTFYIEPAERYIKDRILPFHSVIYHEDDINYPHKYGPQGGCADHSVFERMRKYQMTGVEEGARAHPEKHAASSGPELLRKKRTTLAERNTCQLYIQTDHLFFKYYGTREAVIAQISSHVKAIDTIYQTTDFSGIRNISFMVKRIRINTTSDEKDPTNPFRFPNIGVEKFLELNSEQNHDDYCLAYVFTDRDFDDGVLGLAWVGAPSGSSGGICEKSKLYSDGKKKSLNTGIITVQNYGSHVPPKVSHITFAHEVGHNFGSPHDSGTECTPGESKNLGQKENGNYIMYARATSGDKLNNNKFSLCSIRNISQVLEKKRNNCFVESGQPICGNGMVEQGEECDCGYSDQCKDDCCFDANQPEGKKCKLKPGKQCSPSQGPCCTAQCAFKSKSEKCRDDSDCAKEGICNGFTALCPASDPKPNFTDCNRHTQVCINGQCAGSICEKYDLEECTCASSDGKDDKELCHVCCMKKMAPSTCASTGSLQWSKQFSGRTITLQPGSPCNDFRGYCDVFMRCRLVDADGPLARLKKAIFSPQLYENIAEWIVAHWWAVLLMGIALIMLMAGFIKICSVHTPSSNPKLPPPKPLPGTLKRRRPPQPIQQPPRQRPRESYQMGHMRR

- binding: binds
Substance: Mouse ADAM10 tagged at the C-terminus with the C-terminal half of superfolder GFP (from UniProt O35598)

— paper doi:10.1101/800557
